From ChEMBL document CHEMBL3988442, “University of Dundee, Small-Polar-MMV Screening Library” (2021).

The chains behind the UniProt entries cited, without tags or fusion partners. Residues count along the entry.
UniProt I6X8D2, whole entry: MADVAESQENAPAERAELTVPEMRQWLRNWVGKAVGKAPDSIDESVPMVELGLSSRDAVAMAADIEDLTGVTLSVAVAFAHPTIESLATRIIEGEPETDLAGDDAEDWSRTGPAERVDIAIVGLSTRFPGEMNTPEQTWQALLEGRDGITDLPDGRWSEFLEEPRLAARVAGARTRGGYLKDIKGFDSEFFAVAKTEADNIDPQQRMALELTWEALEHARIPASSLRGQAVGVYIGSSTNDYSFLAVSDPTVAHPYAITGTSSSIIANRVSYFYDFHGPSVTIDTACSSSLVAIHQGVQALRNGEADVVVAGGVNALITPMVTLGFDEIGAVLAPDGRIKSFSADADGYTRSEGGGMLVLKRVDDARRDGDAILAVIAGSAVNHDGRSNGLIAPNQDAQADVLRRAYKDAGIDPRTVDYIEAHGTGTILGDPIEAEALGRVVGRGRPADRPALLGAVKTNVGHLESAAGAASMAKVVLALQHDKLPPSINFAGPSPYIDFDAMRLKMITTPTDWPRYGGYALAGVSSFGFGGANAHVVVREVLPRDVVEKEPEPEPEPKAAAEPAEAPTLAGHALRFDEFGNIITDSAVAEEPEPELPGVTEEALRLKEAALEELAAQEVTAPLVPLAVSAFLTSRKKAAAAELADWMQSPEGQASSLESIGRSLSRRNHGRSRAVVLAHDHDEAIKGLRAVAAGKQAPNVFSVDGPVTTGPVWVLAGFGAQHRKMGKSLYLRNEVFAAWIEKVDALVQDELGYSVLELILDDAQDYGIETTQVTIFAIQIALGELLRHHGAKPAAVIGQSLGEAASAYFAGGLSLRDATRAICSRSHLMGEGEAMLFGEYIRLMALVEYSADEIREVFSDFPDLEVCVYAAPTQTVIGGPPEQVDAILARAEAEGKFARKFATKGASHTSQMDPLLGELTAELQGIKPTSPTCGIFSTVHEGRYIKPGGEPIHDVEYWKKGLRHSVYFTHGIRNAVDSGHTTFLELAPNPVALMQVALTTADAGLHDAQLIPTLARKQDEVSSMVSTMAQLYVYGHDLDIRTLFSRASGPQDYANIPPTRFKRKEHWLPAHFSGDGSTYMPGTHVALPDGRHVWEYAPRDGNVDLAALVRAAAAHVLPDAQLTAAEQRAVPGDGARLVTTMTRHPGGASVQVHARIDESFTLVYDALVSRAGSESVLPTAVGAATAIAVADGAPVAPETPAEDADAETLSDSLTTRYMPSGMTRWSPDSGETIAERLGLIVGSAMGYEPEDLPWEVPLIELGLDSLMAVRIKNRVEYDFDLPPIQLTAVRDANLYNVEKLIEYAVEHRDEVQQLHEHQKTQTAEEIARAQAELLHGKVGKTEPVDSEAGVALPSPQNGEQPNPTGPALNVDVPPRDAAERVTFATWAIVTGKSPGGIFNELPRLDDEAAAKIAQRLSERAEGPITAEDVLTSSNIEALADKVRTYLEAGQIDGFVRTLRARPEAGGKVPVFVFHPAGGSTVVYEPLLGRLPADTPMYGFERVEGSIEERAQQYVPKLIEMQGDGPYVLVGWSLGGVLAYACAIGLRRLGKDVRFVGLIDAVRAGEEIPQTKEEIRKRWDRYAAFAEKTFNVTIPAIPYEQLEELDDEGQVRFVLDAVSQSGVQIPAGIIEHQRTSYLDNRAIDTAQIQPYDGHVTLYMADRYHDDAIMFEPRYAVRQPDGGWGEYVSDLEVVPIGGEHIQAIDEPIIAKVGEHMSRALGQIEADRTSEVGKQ
UniProt Q8IDJ8, 1-583: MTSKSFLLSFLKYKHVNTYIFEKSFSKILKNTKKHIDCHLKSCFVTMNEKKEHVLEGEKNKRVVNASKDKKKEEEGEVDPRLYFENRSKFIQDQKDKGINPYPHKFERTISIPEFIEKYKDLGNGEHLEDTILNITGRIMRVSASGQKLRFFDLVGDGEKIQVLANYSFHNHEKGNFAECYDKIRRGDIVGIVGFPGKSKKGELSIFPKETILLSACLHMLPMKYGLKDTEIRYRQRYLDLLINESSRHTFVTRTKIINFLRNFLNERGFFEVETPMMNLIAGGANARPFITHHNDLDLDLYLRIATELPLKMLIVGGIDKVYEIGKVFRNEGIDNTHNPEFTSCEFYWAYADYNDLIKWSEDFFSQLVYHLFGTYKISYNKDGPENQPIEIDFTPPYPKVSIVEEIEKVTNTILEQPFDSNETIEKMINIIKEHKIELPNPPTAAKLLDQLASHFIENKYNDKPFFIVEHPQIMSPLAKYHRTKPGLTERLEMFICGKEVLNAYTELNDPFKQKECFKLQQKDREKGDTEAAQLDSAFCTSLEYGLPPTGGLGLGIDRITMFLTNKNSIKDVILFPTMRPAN
UniProt P9WNZ1, whole entry: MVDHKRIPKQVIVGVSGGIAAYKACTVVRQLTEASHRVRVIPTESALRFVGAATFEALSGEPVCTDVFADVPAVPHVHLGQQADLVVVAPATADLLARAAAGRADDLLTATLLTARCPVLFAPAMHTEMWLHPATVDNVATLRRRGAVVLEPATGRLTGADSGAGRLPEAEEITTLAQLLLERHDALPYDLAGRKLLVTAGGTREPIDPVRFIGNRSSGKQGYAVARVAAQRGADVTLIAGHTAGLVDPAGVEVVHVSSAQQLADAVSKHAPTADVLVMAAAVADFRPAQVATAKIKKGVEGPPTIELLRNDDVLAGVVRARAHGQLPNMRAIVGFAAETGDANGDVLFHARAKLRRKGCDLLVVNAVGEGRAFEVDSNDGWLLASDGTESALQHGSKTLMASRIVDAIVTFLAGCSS

Values are the deposited “Percent Effect”, in %. The controls that fix the scale are not given in the record; negative values are as filed. This is an unselected part of the compounds tested. A dash means the value is not listed here; it may have been measured.

Pks13 thioesterase: 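Enzyme assay of the thioesterase domain of polyketide synthase 13; the read-out is not stated. Target: Polyketide synthase Pks13, Mycobacterium tuberculosis (UniProt I6X8D2). Tested at 30 µM. The record gives no direction; the compounds picked for IC50 retests had high values, so higher reads as stronger inhibition. About 67,000 compounds were tested under these conditions; 0.46% (about 300) showed 50% or more at least once.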
PfKRS1: 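Enzyme assay of the cytosolic lysyl-tRNA synthetase in 384-well plates, read by luminescence. Target: Lysine-tRNA ligase, Plasmodium falciparum 3D7 (UniProt Q8IDJ8). Compounds at 30 µM. Higher reads as stronger inhibition, judged from the few compounds that gave an IC50. Size under these conditions: about 69,000 compounds, about 49 of them at 50% or above in at least one test.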
CoaBC: 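Coenzyme A biosynthesis protein CoaBC, Mycobacterium tuberculosis (UniProt P9WNZ1). Enzyme assay of CoaBC with a phosphate dye (Biomol Green) read at 650 nm. Compounds at 30 µM. Direction is inferred from only a few compounds that gave an IC50; most scored high, so higher reads as stronger inhibition. Most strong results did not repeat in a second test. Size under these conditions: about 67,000 compounds, about 40 of them at 50% or above in at least one test.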

SMILES | Pks13 thioesterase | PfKRS1 | CoaBC
COCc1nc2n(n1)CCCC2Nc1nc(C)ns1 (stereo not given) | -31.99% | -3.699% | 2.583%
Fc1ccccc1Oc1nccnc1C1CCN(C2CCOCC2)CC1 | -16% | -1.144% | -8.221%
Cc1cc(C)nc(N2CCN(C(=O)c3ccc(C4CCCO4)s3)CC2)n1 (stereo not given) | -33.72% | 5.484% | 4.721%
CCCc1nc(Cn2c(=O)n(C)c3ccccc32)no1 | -11.97% | 0.9233% | -7.196%
Cc1cc(C)n(CC2CN(CC(=O)NCc3ccccn3)CCO2)n1 (stereo not given) | -15.4% | 1.958% | 3.944%
CC(C)Nc1ncnc2c1CCN(C(=O)c1ccncc1F)CC2 | -26.72% | -1.153% | 7.198%
CC(O)CC(C)(C)CNC(=O)NCc1cccc(-n2ccnc2)c1 (stereo not given) | -12.96% | 1.034% | 1.322%
O=C1COC2(CCN(Cc3cccs3)CC2)CN1c1cncnc1 | -6.115% | -31.95% | 2.746%
O=C1CC(c2ccsc2)c2snc(C(=O)O)c2N1 (stereo not given) | -12.7% | -1.523% | 2.773%
Cc1nc(C)c(C)c(N2C[C@@H](CN3CCCN(C)CC3)[C@@H](CO)C2)n1 | -38.1% | 0.4186% | -12.81%
O=C(CN1CCCCC1C1OCCO1)Nc1ccc(F)c(F)c1 (stereo not given) | -6.692% | 6.467% | 3.106%
O=C(NC1CCS(=O)(=O)C1)c1cc(Sc2ncccn2)ccn1 (stereo not given) | -15.99% | -0.1292% | -27.86%
Nc1ccnc(-c2cc(NC3CCNCC3)nc3[nH]ccc23)c1 | 34.91% | 8.615% | 10.74%
CC(=O)N1CC[C@H]2[C@H](C[C@@H](Cn3cncn3)N2c2nccs2)C1 | 6.369% | -2.022% | -
O=C(O)c1cccnc1CN1CCCCC1CCc1ccccn1 (stereo not given) | -16.29% | 4.611% | 1.235%
COCCNc1nc(-c2ccc(S(=O)(=O)N3CCCCCC3)cc2)cs1 | -27.09% | 3.942% | 4.839%
Cc1ccc(C(=O)Nc2cn[nH]c2)cc1 | -7.501% | 0.3654% | 5.45%
Cc1nc(CNCc2ccc(OC34CCCN(CC3)C4)cc2)n[nH]1 (stereo not given) | -18.37% | 0.2884% | -14.89%
Cc1cnn(C2CCCN(C(=O)c3cn4cccnc4n3)C2)c1 (stereo not given) | 14.75% | 3.853% | 5.101%
CCCc1cc(=O)[nH]c2nnc(SCC(=O)NC(C)(C)C)n12 | -30.11% | 7.405% | 2.622%
CC(C)(C)c1nc(CN2CCc3onc(-c4cccc(F)c4)c3C2)no1 | -16.49% | 9.664% | 3.68%
Cc1ccsc1CN1CC2(CCN(C(=O)C3CC3)CC2)CC1C(=O)O (stereo not given) | 0.06895% | 3.199% | 12.14%
Cc1nc(NC(=O)N2CCCC(C(C)(C)O)C2)nn1C (stereo not given) | -3.409% | 4.287% | 0.369%
Cc1nc(CN2CCC3(C2)CN(C(=O)c2ccc[nH]2)C3)cs1 | -8.322% | 2.631% | -0.2475%
Cn1nc(C2CCCN2)c2c(C(=O)NC3CC3)cc(C3CC3)nc21 (stereo not given) | -21.8% | 3.291% | -6.842%
Cc1nccn1-c1ccc(C(C)Nc2cnn(C)c(=O)c2Cl)cc1 (stereo not given) | -2.461% | 6.656% | 3.165%
CCn1ccnc1CN1CCOC(Cn2cccn2)C1 (stereo not given) | -44.3% | -2.065% | 0.1272%
COc1ccc(C(=O)N2CCCC(NC(=O)C(C)C)C2)c(O)c1 (stereo not given) | -2.252% | -0.7852% | 4.596%
CC(=O)N(Cc1noc(C)n1)C1CCN(CC(=O)N(C)C2CC2)C1 (stereo not given) | 2.809% | 7.072% | 3.418%
CC(=O)N1CC(=O)N(c2ccsc2)CC12CCN(Cc1ccccn1)C2 (stereo not given) | -23.79% | 14.95% | 8.469%
Cc1cnc(N2CCOCC3(CCN(c4ccccn4)C3)C2)nc1 (stereo not given) | 0.254% | -2.724% | 2.506%
COC[C@H]1CC[C@@H]2[C@@H](CCN2Cc2ccccn2)O1 | -25.76% | -2.306% | 1.5%
C=C(C)CN1CCOC(Cn2cncn2)C1 (stereo not given) | 5.505% | -2.138% | -1.737%
CC(C)(C)c1cn2nc(N3CCOC(Cn4cncn4)C3)sc2n1 (stereo not given) | -6.822% | 0.3751% | 4.922%
O=C(Nc1ccc(-c2ccccc2)cc1)N1C[C@@H]2CNC[C@]2(C(=O)O)C1 | -19.41% | 4.814% | 19.2%
CC(C(=O)N1CCC(Nc2cccnn2)CC1)n1ccnc1 (stereo not given) | -10.37% | 2.384% | 4.152%
NC(=O)c1sc2ccccc2c1C1CCN(S(=O)(=O)N2CCOCC2)C1 (stereo not given) | -25.43% | -2.039% | 15.53%
CC(Cn1cccn1)NC(=O)c1cccs1 (stereo not given) | -15.49% | 0.4225% | 0.5222%
COCC(=O)N1CCC([C@@H]2C[C@H](C(F)(F)F)n3nc(C)cc3N2)CC1 | -8.83% | 0.6836% | 3.893%
Cc1nc(C2CCN(C)CC2)cc(N2CCOc3ccc(Cl)cc3C2)n1 | -11.85% | 2.505% | 15.44%
COc1ccccc1CC1CCCN(CC(=O)NC2CC2)C1 (stereo not given) | -10.63% | 5.785% | 2.376%
Cc1cc(C2CCN(C(=O)c3cnn(C)c3)CC2)ccn1 | -5.583% | 3.537% | 1.225%
Cn1cc(CN2C[C@@H](NC(=O)c3cscn3)[C@H]3OCCC[C@H]32)cn1 | -41.38% | 3.697% | 10.42%
CNC(=O)[C@H]1C[C@@H]2CN(S(=O)(=O)Cc3ccccc3)C[C@@H]2N1C | 20.45% | 9.212% | 5.212%
Cc1ccc(N2C[C@H](C)[C@]3(CCN(c4cccnc4)C3=O)C2)nn1 | 11.82% | 0.07262% | 2.927%
Cc1occc1C(=O)N1C[C@@H](C(=O)NCc2ccco2)C[C@H]2OCC[C@H]21 | -10.77% | -2.099% | -5.055%
Cc1occc1C(=O)N1CCC2(CCCN(Cc3nccs3)C2)C1 (stereo not given) | -10.72% | 5.392% | 1.468%
O=C(c1cn(-c2cc(N3CCSCC3)ncn2)cn1)N1CCSCC1 | -7.994% | 3.605% | 5.33%
O=C(COC1CCCCC1)Nc1ccn(CCc2ccncc2)n1 | -24.94% | -2.727% | -0.3984%
CNC(=O)c1cccc(C2CNCCN2C(C)=O)c1 (stereo not given) | 31.64% | 2.641% | -3.056%
CCn1ccnc1C1CCN(C(=O)C(O)c2ccc(Cl)cc2)CC1 (stereo not given) | -20.66% | 12.06% | 7.417%
O=C(NC1CC1)[C@H]1CC[C@@H]2[C@@H](CCN2CCOCc2ccccc2)O1 | -21.27% | 6.945% | 2.463%
O=C(Cc1ccncc1)N1CCC2(CC1)CC(c1ccccc1)CO2 (stereo not given) | -7.351% | -0.07163% | 1.609%
CSCCNC(=O)c1ccc(OC2CCN(CC(C)(C)C)CC2)c(Cl)c1 | -23.47% | -1.99% | 7.048%
O=C(CCNc1ncccn1)N1CCCN(c2nccs2)CC1 | -24.18% | -2.124% | -4.075%
CCN(C(=O)CN1CCCC1c1cc(C)no1)c1ccccc1C (stereo not given) | -16.14% | -3.143% | 0.2451%
Cc1[nH]ccc1C(=O)NCC1CC(=O)N(CCc2ccccc2)C1 (stereo not given) | -12.35% | 3.02% | 6.746%
Cc1noc(C)c1CNC(=O)N1CCC(CN2CCC(C)CC2)CC1 | -5.689% | 3.197% | 4.485%
CN1CCCC[C@@H]2[C@H]1[C@@H](c1ccccc1)CCN2C(=O)c1cccnc1 | 9.145% | 2.482% | 3.676%
COc1ncccc1C(=O)Nc1cccc(C[S+](C)[O-])c1C (stereo not given) | -12.32% | 3.247% | 15.88%
Cc1nc(CCCC(=O)Nc2cccc(N3CCNC3=O)c2)cs1 | -4.723% | 6.915% | 0.6904%
COC1COC2(CCN(CC3CC3)CC2)C1 (stereo not given) | -2.903% | 1.632% | -1.856%
Cc1ccc(Cl)cc1C(=O)N1CCC2(CC1)c1ccccc1[C@@H](N)[C@@H]2O | -27.1% | 1.989% | 14.71%
CCOC(=O)CC(C)Nc1nc(C2CCCC2)nc2c1cnn2C (stereo not given) | -26.41% | 4.981% | 3.474%
Cc1nccc([C@H]2C[C@@H]3CCN(S(=O)(=O)C4CC4)C[C@H]3O2)n1 | -12.98% | 4.26% | -11.11%
Cc1cnc2c(S(=O)(=O)NC(=O)C(C)OCC3CC3)cccc2c1 (stereo not given) | -13.94% | 3.787% | 3.182%
CCNC(=O)[C@@H]1C[C@@H](N)CN1C(=O)CCc1ccc(C)c(C)c1 | -35.28% | 5.027% | 1.799%

For reference, 6 entries once more:

{"smiles": "CC(O)CC(C)(C)CNC(=O)NCc1cccc(-n2ccnc2)c1", "stereo": "stereo not given", "Pks13 thioesterase": -12.96, "PfKRS1": 1.034, "CoaBC": 1.322}
{"smiles": "CCCc1nc(Cn2c(=O)n(C)c3ccccc32)no1", "Pks13 thioesterase": -11.97, "PfKRS1": 0.9233, "CoaBC": -7.196}
{"smiles": "Cc1cc(C)nc(N2CCN(C(=O)c3ccc(C4CCCO4)s3)CC2)n1", "stereo": "stereo not given", "Pks13 thioesterase": -33.72, "PfKRS1": 5.484, "CoaBC": 4.721}
{"smiles": "O=C1CC(c2ccsc2)c2snc(C(=O)O)c2N1", "stereo": "stereo not given", "Pks13 thioesterase": -12.7, "PfKRS1": -1.523, "CoaBC": 2.773}
{"smiles": "Cc1ccc(C(=O)Nc2cn[nH]c2)cc1", "Pks13 thioesterase": -7.501, "PfKRS1": 0.3654, "CoaBC": 5.45}
{"smiles": "Cc1noc(C)c1CNC(=O)N1CCC(CN2CCC(C)CC2)CC1", "Pks13 thioesterase": -5.689, "PfKRS1": 3.197, "CoaBC": 4.485}